Some of the results follow.

For 42 sequences, binding signal results are on record in paper PMC7819943, “Rice protein-binding microarrays: a tool to detect cis-acting elements near promoter regions in rice”.

In this experiment the target is T1, OsSMF1 (Oryza sativa, UniProt Q6ZLB0 1-436).
T1 sequence: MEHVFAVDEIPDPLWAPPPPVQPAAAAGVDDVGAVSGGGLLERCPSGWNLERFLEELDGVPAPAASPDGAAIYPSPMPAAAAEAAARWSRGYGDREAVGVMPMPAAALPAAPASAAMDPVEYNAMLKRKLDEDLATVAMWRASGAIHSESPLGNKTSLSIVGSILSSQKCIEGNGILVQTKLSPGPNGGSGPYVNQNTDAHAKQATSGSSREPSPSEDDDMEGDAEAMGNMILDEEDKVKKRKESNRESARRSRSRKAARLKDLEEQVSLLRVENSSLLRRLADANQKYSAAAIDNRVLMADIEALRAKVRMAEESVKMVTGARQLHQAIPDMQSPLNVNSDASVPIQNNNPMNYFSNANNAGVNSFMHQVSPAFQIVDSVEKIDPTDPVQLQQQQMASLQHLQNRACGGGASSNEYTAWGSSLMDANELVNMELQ
The experiment can be described thus: protein-binding microarray (RPBM); PBS, 2% BSA, 51.3 ng/ul salmon testes DNA, 50 uM zinc acetate, 200 nM TF, 25 C, 1 h; high values mean tight binding. The conditions noted are these: protein: recombinant; tags: N-terminal polyhistidine and DsRed monomer fusion (pET32a); chain copies: 2; label: CyDye5-dUTP incorporated in the synthesized complementary strand; 3' TTTTT single-stranded linker to array surface; dsDNA, one strand shown. In short, it runs like this: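 Transcription factors were each fused at the N-terminus to a polyhistidine tag plus DsRed and expressed in E. coli BL21-CodonPlus before Ni–NTA purification. Binding to a double-stranded custom Agilent array was carried out with 200 nM protein at 25 °C for 1 h in PBS, 2% BSA, salmon testes DNA and 50 µM zinc acetate. The binding signal is per-feature fluorescence intensity, in arbitrary units, on an Axon 4000B scanner.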
On to “TTGCTTACAATGCCACATCACAGCCACCACGTAGGATAATCGGAGTCACCTAGTGCAG”, for which the binding signal is 9320 fluorescence intensity (a.u.). The value for “GTTGACCGTCTACGTGGCATTCCACGTAGGCAGCTCATTTCGGAGTCACCTAGTGCAG” was 16600 fluorescence intensity (a.u.); that for “ACGCCTCATCTCCAGTCCACGGCTCAACGTCCACGCACACCGGAGTCACCTAGTGCAG” was 3490 fluorescence intensity (a.u.); that for “AGACTGTAGGACCTGCTGACGTGGTGTAAACCGCTCAGGGCGGAGTCACCTAGTGCAG” was 20300 fluorescence intensity (a.u.).

Consider “CATGTAGGGATTGCATGAACACGCCATTGCCGGCTTCCGCCGGAGTCACCTAGTGCAG”, for which the binding signal is 3500 fluorescence intensity (a.u.).

For “TCCTCTGCAGTCACTTTACCGTGCATTTATCACATGTCAGCGGAGTCACCTAGTGCAG”, the binding signal was 4670 fluorescence intensity (a.u.). The value for “AGCAGCAGTGTTCATGTCACCAATAATTTGGCTCATGCTTCGGAGTCACCTAGTGCAG” was 3630 fluorescence intensity (a.u.); that for “GCAGCCGGCGGCAGCGAAGCATCTGTCGCGGGAGACACGTCGGAGTCACCTAGTGCAG” was 4250 fluorescence intensity (a.u.); that for “CTCAAATGCACCAACAAGCAAATTTCTTGTACCCGTCATGCGGAGTCACCTAGTGCAG” was 3690 fluorescence intensity (a.u.).

In the case of “ATTGAAAAGGGTGGTAGAGTTAATTTGTTGTATGAGTTGGCGGAGTCACCTAGTGCAG”, the binding signal was 4400 fluorescence intensity (a.u.). The value for “CCACTGCCATTGCCTCGCTGGCGAGGACGTGTCGACGGGTCGGAGTCACCTAGTGCAG” was 10500 fluorescence intensity (a.u.). The figure for “TGAGAAACGACAAAATCAGGCACGGAGTCAGACTCTGCCACGGAGTCACCTAGTGCAG” is 3170 fluorescence intensity (a.u.); for “GCCCGCACGTCAGTGGGCGTAGGTACAGTCGGGGCGGGTGCGGAGTCACCTAGTGCAG” it is 4380 fluorescence intensity (a.u.). As to “GGGTACTTAACCCTGATGTGGCTAAAGAGAAAAGCCGAATCGGAGTCACCTAGTGCAG”, the binding signal is 3940 fluorescence intensity (a.u.). For “TGTTTATAAACATTCCACGAATTAAACCCTGCAAAATTCCCGGAGTCACCTAGTGCAG”, the binding signal is 21200 fluorescence intensity (a.u.). The value for “AAGAAACCATCAAGCTAGCGAGGCCACCTCACCGGCCGCCCGGAGTCACCTAGTGCAG” was 3320 fluorescence intensity (a.u.).

Take “CAAGCAAAGTCCGTGCGTGTGGGCGTGGCTGACACCACGACGGAGTCACCTAGTGCAG”: the binding signal is 3220 fluorescence intensity (a.u.).

Consider “GCAGGGCCGTTGGCTCGCCGTGCCGCCACGTCCCGGTGCCCGGAGTCACCTAGTGCAG”, for which the binding signal was 4060 fluorescence intensity (a.u.). The value for “TTTTCATGAGGTTGCCAAACTCAATTTGTCAGCATTAATTCGGAGTCACCTAGTGCAG” was 3360 fluorescence intensity (a.u.); that for “TTTCTAGAGCACCTCTCACAAGCTCAGCATCTTCATGGTCCGGAGTCACCTAGTGCAG” was 3820 fluorescence intensity (a.u.). The value for “CGGTTCCTCCAGAGCGTAAGTGAATTGGGAAATTTCGGTGCGGAGTCACCTAGTGCAG” was 3300 fluorescence intensity (a.u.). The value for “ATATCTGCAGTAAGAGTCAGAGGTCCAAGACGTCCAAGTGCGGAGTCACCTAGTGCAG” was 3170 fluorescence intensity (a.u.); that for “CTGGCGCTCAAGGCGGCGGCCGCCGCCATGGCCGACCCGACGGAGTCACCTAGTGCAG” was 27400 fluorescence intensity (a.u.). As for “ACTTGATGACATCATACTGACATGGGCGTCCGATTCCTAGCGGAGTCACCTAGTGCAG”, the binding signal is 13700 fluorescence intensity (a.u.).

As for “TACACCGATCCATGATTGGTACATAGTACGCCGGTGAATCCGGAGTCACCTAGTGCAG”, the binding signal was 15800 fluorescence intensity (a.u.). On to “ACCAGCAGTGCTTAAGTCCAGTCCACCACATCACAGTCGGCGGAGTCACCTAGTGCAG”, for which the binding signal was 4170 fluorescence intensity (a.u.). The value for “CGCGCGTGCCCGCGTAAACCAAGTCACGGATCCGCCGCCCCGGAGTCACCTAGTGCAG” was 3540 fluorescence intensity (a.u.); that for “TGTTTGCCCACAGCTTGCTCGATGAAATGACTGGTTCATGCGGAGTCACCTAGTGCAG” was 3220 fluorescence intensity (a.u.). The value for “ATACCAAGAGTTCAAGAGAGCAGCTGGAGAAGACCTTCTTCGGAGTCACCTAGTGCAG” was 4990 fluorescence intensity (a.u.). On to “TAATAGGGTGTGGCAAATCGTTATTTGCCATGTCATAATGCGGAGTCACCTAGTGCAG”, for which the binding signal is 7010 fluorescence intensity (a.u.). The figure for “GTAGGTGACCCCGTCCGGCTCGAATCCCTGCTCCTCGAGCCGGAGTCACCTAGTGCAG” is 25200 fluorescence intensity (a.u.); for “AGAGGGGATGGGCCCACGTGTCAGGTTGCCCTCCCGTCCACGGAGTCACCTAGTGCAG” it is 7240 fluorescence intensity (a.u.); for “CTCTTTTGTTAGCTACAACACGTGGCCAGCATCGACGTAGCGGAGTCACCTAGTGCAG” it is 6430 fluorescence intensity (a.u.). The figure for “GAGATCATGGTGATGAGGTCACTCAAGGGACACCCCAATGCGGAGTCACCTAGTGCAG” is 3500 fluorescence intensity (a.u.); for “GACTAGGAATACACGTGTTCATGTAGTAAGCTTTTAGTGCCGGAGTCACCTAGTGCAG” it is 11200 fluorescence intensity (a.u.); for “CATATGCCATCTAATCATCCTTGTCTGATGTCATTTATTCCGGAGTCACCTAGTGCAG” it is 5870 fluorescence intensity (a.u.). On to “AAGAAGCGTGTTAACACGCACGCACGCGCTTCTTCCCTCCCGGAGTCACCTAGTGCAG”, for which the binding signal was 3730 fluorescence intensity (a.u.).

For “AGGTTTTGTAGGGGTGGTGGACTGGGCCACGGCCCATGGGCGGAGTCACCTAGTGCAG”, the binding signal is 3430 fluorescence intensity (a.u.). The value for “TAGAGAGAGAGGAGCTGACGTGGCCAAGCTGACATGTGGGCGGAGTCACCTAGTGCAG” was 9190 fluorescence intensity (a.u.). The value for “ACAGTGACAGGTGTAAACTAGTGGCAGTGATGGTGGAGGTCGGAGTCACCTAGTGCAG” was 3820 fluorescence intensity (a.u.); that for “CCTGAGCGGAGCTGGGACGTGGACGCGCCGCAAAAGCGAACGGAGTCACCTAGTGCAG” was 6670 fluorescence intensity (a.u.); that for “GCGCTGCAAGCGCTCGCCGCTGACACCGGCGGCTTCCTGGCGGAGTCACCTAGTGCAG” was 4670 fluorescence intensity (a.u.).
